System: human cervical cancer cells (HeLa)
Test: In vitro anticancer activity (MTT) of [Re(CO)3(N—N)(H2O)][OTf] complexes in HeLa cells
Type: cell-based
Details: steepness of the dose-response curve
Experimental: HeLa (cervical cancer) cell line was cultured using Dulbecco's Modified Eagle's Medium (DMEM) supplemented with 10% fetal bovine serum (FBS). A2780 (ovarian cancer) and A2780CP70 (cisplatin-resistant ovarian cancer) cell lines were cultured as monolayers with Roswell Park Memorial Institute (RPMI)-1640 culture media supplemented with 10% fetal bovine serum. All cell lines were grown in a humidified incubator at 37° C. with an atmosphere of 5% CO2. Cells were passed at 80-90% confluence, using trypsin/EDTA. Cells were tested monthly for mycoplasma contamination with the PlasmoTest™ mycoplasma detection kit from InvivoGen.
All compounds were dissolved in phosphate-buffered saline (PBS, pH 7.4) to prepare a 1-2 mM stock solution. For single dose studies, only HeLa cells were used. For both the single dose and full dose response, all cells were grown to 80-90% confluence, detached with trypsin/EDTA, seeded in 96-well plates at 2000 cells/well for HeLa cells and 4000 cells/well for A2780 and A2780CP70 cells in 100 μL of growth media, and incubated for 24 hours. The medium was removed and replaced with fresh medium (200 μL) containing a single concentration of a rhenium(I) complex or media. The cells were then incubated for 4 hours, and then the cells were dosed with 365 nm for 1 hour (one plate under the same dosing conditions was kept outside the incubator in the dark as a control). After exposure to light, the plates incubated for an additional 44 hours, the medium was removed from the wells, and (3(4,5-dimethylthiazol-2-yl)-2,5-tetrazolium bromide (MTT) in RPMI (200 μL, 1 mg/mL) was added. After 4 hours, the MTT/RPMI solution was removed, and the formazan crystals were dissolved in 200 μL of an 8:1 mixture of DMSO and pH 10 glycine buffer. The absorbance at 570 nm in each well was measured using a BioTek Synergy™ HT plate reader. Cell viability was determined by normalizing the absorbance of the treated wells to untreated wells. All compounds that had less than 50% cell viability were analyzed using a full dose response. The % viability data is an average of three independent experiments with six replicates per concentration. The same procedure was followed as above for the full dose response but instead, after 24 hours, varying concentrations of the desired compounds were added. Cell viability was again determined by normalizing the absorbance of the treated wells to untreated wells The concentration of the compound versus % viability was plotted to produce dose-response curves, which were analyzed using a logistic sigmoid function fit with MagicPlot Pro™ software. The reported IC50 values are the average of three independent experiments with six replicates per concentration level.
The in vitro anticancer activities of these complexes were tested in human cervical cancer cells (HeLa), and the results are provided below in Table 1. […] The Hill-Slope is a quantitative measure of the steepness of the dose-response curve.

Row | Compound | Hill Slope
1 | Cc1ccc2ccc3ccc(C)nc3c2n1.O.O=S(=O)([O-])C(F)(F)F.[C-]#[O+].[C-]#[O+].[C-]#[O+].[Re+] [2,9-dimethyl phen, [Re(CO)3(N—N)(H2O)][OTf]] | 3.3 ± 0.7
2 | N.N.[Cl][Pt][Cl] [cisplatin, reference compound] | 0.87 ± 0.14
3 | [Re(CO)3(N—N)(H2O)][OTf] [4,4′-dimethoxy bpy] | 2.3 ± 0.9
4 | [Re(CO)3(N—N)(H2O)][OTf] [4,4′-dimethyl bpy] | 2.0 ± 0.8
5 | [Re(CO)3(N—N)(H2O)][OTf] [4,4′dimethylester bpy] | 9.3 ± 4.6
6 | [Re(CO)3(N—N)(H2O)][OTf] [4,7-diphenyl phen] | 0.86 ± 0.13
7 | [Re(CO)3(N—N)(H2O)][OTf] [bpy] | 2.0 ± 0.3
8 | [Re(CO)3(N—N)(H2O)][OTf] [phen] | 4.8 ± 2.4
